Reference: ChEMBL document CHEMBL4316593 (Eur J Med Chem, 2019)
This continues a long series; more values of the same kind are listed elsewhere.

Key:
Format in all cases: cell-based
Settings in all cases: U-87MG ATCC
[1] = Inhibition of RTK/PI3K/AKT/mTOR signaling in human U87 cells assessed as down regulation of RGS2 gene expression at cytotoxic IC50 measured after 48 hrs relative to control
[2] = Inhibition of RTK/PI3K/AKT/mTOR signaling in human U87 cells assessed as down regulation of PNP gene expression at cytotoxic IC50 measured after 48 hrs relative to control
[3] = Inhibition of RTK/PI3K/AKT/mTOR signaling in human U87 cells assessed as down regulation of HMGN3 gene expression at cytotoxic IC50 measured after 48 hrs relative to control
[4] = Inhibition of RTK/PI3K/AKT/mTOR signaling in human U87 cells assessed as down regulation of C9orf78 gene expression at cytotoxic IC50 measured after 48 hrs relative to control
[5] = Inhibition of RTK/PI3K/AKT/mTOR signaling in human U87 cells assessed as down regulation of NEIL3 gene expression at cytotoxic IC50 measured after 48 hrs relative to control
[6] = Inhibition of RTK/PI3K/AKT/mTOR signaling in human U87 cells assessed as down regulation of SERTAD1 gene expression at cytotoxic IC50 measured after 48 hrs relative to control
[7] = Inhibition of RTK/PI3K/AKT/mTOR signaling in human U87 cells assessed as down regulation of KLHL18 gene expression at cytotoxic IC50 measured after 48 hrs relative to control
[8] = Inhibition of RTK/PI3K/AKT/mTOR signaling in human U87 cells assessed as down regulation of VRK1 gene expression at cytotoxic IC50 measured after 48 hrs relative to control
[9] = Inhibition of RTK/PI3K/AKT/mTOR signaling in human U87 cells assessed as down regulation of FYCO1 gene expression at cytotoxic IC50 measured after 48 hrs relative to control
[10] = Inhibition of RTK/PI3K/AKT/mTOR signaling in human U87 cells assessed as down regulation of DNAJB14 gene expression at cytotoxic IC50 measured after 48 hrs relative to control
[11] = Inhibition of RTK/PI3K/AKT/mTOR signaling in human U87 cells assessed as down regulation of HMG20B gene expression at cytotoxic IC50 measured after 48 hrs relative to control
[12] = Inhibition of RTK/PI3K/AKT/mTOR signaling in human U87 cells assessed as down regulation of ZC3H13 gene expression at cytotoxic IC50 measured after 48 hrs relative to control
[13] = Inhibition of RTK/PI3K/AKT/mTOR signaling in human U87 cells assessed as down regulation of ILKAP gene expression at cytotoxic IC50 measured after 48 hrs relative to control
[14] = Inhibition of RTK/PI3K/AKT/mTOR signaling in human U87 cells assessed as down regulation of CFAP20 gene expression at cytotoxic IC50 measured after 48 hrs relative to control
[15] = Inhibition of RTK/PI3K/AKT/mTOR signaling in human U87 cells assessed as down regulation of MRPL49 gene expression at cytotoxic IC50 measured after 48 hrs relative to control
[16] = Inhibition of RTK/PI3K/AKT/mTOR signaling in human U87 cells assessed as down regulation of DOCK7 gene expression at cytotoxic IC50 measured after 48 hrs relative to control
[17] = Inhibition of RTK/PI3K/AKT/mTOR signaling in human U87 cells assessed as up regulation of LINC01694 gene expression at cytotoxic IC50 measured after 48 hrs relative to control
[18] = Inhibition of RTK/PI3K/AKT/mTOR signaling in human U87 cells assessed as up regulation of NR2F1 gene expression at cytotoxic IC50 measured after 48 hrs relative to control
[19] = Inhibition of RTK/PI3K/AKT/mTOR signaling in human U87 cells assessed as up regulation of ITPKA gene expression at cytotoxic IC50 measured after 48 hrs relative to control
[20] = Inhibition of RTK/PI3K/AKT/mTOR signaling in human U87 cells assessed as up regulation of KCNN4 gene expression at cytotoxic IC50 measured after 48 hrs relative to control
[21] = Inhibition of RTK/PI3K/AKT/mTOR signaling in human U87 cells assessed as up regulation of TMEM184A gene expression at cytotoxic IC50 measured after 48 hrs relative to control
[22] = Inhibition of RTK/PI3K/AKT/mTOR signaling in human U87 cells assessed as up regulation of tsukushi, small leucine rich proteoglycan gene expression at cytotoxic IC50 measured after 48 hrs relative to control
[23] = Inhibition of RTK/PI3K/AKT/mTOR signaling in human U87 cells assessed as up regulation of solute carrier family 16 member 1 gene expression at cytotoxic IC50 measured after 48 hrs relative to control
[24] = Inhibition of RTK/PI3K/AKT/mTOR signaling in human U87 cells assessed as up regulation of SH2 domain containing 4A gene expression at cytotoxic IC50 measured after 48 hrs relative to control
[25] = Inhibition of RTK/PI3K/AKT/mTOR signaling in human U87 cells assessed as up regulation of ring finger protein 5 gene expression at cytotoxic IC50 measured after 48 hrs relative to control
[26] = Inhibition of RTK/PI3K/AKT/mTOR signaling in human U87 cells assessed as up regulation of syntaxin 10 gene expression at cytotoxic IC50 measured after 48 hrs relative to control
[27] = Inhibition of RTK/PI3K/AKT/mTOR signaling in human U87 cells assessed as up regulation of mediator complex subunit 22 gene expression at cytotoxic IC50 measured after 48 hrs relative to control
[28] = Inhibition of RTK/PI3K/AKT/mTOR signaling in human U87 cells assessed as up regulation of coiled-coil domain containing 88C gene expression at cytotoxic IC50 measured after 48 hrs relative to control
[29] = Inhibition of RTK/PI3K/AKT/mTOR signaling in human U87 cells assessed as up regulation of CDC42 effector protein 4 gene expression at cytotoxic IC50 measured after 48 hrs relative to control
[30] = Inhibition of RTK/PI3K/AKT/mTOR signaling in human U87 cells assessed as up regulation of aldehyde dehydrogenase 18 family member A1 gene expression at cytotoxic IC50 measured after 48 hrs relative to control
[31] = Inhibition of RTK/PI3K/AKT/mTOR signaling in human U87 cells assessed as up regulation of SSH1 gene expression at cytotoxic IC50 measured after 48 hrs relative to control
[32] = Inhibition of RTK/PI3K/AKT/mTOR signaling in human U87 cells assessed as up regulation of MYBBP1A gene expression at cytotoxic IC50 measured after 48 hrs relative to control

CC(=O)C(=NNc1ccccc1C#N)C(C)=O
log2FC [1]: -2.33
log2FC [2]: -1.16
log2FC [3]: -1.02
log2FC [4]: -1.02
log2FC [5]: -0.996
log2FC [6]: -0.988
log2FC [7]: -0.74
log2FC [8]: -0.699
log2FC [9]: -0.678
log2FC [10]: -0.668
log2FC [11]: -0.655
log2FC [12]: -0.63
log2FC [13]: -0.629
log2FC [14]: -0.616
log2FC [15]: -0.527
log2FC [16]: -0.498
log2FC [17]: 3.72
log2FC [18]: 3.56
log2FC [19]: 2.43
log2FC [20]: 2.08
log2FC [21]: 1.88
log2FC [22]: 1.38
log2FC [23]: 1.33
log2FC [24]: 1.11
log2FC [25]: 1.09
log2FC [26]: 0.996
log2FC [27]: 0.903
log2FC [28]: 0.78
log2FC [29]: 0.721
log2FC [30]: 0.67
log2FC [31]: 0.624
log2FC [32]: 0.565
